Reference: article PMC5709413
No constants are given. Whether binding was seen depends on the method and setting. In cells and extracts the contact can be indirect. A yes stands for co-enrichment or nearness to the bait. Other partners may have been found. Sequences can lack the tags named with a protein.

Chains of the proteins cited; added tags and fusions are not shown.
UniProt Q8CGC7: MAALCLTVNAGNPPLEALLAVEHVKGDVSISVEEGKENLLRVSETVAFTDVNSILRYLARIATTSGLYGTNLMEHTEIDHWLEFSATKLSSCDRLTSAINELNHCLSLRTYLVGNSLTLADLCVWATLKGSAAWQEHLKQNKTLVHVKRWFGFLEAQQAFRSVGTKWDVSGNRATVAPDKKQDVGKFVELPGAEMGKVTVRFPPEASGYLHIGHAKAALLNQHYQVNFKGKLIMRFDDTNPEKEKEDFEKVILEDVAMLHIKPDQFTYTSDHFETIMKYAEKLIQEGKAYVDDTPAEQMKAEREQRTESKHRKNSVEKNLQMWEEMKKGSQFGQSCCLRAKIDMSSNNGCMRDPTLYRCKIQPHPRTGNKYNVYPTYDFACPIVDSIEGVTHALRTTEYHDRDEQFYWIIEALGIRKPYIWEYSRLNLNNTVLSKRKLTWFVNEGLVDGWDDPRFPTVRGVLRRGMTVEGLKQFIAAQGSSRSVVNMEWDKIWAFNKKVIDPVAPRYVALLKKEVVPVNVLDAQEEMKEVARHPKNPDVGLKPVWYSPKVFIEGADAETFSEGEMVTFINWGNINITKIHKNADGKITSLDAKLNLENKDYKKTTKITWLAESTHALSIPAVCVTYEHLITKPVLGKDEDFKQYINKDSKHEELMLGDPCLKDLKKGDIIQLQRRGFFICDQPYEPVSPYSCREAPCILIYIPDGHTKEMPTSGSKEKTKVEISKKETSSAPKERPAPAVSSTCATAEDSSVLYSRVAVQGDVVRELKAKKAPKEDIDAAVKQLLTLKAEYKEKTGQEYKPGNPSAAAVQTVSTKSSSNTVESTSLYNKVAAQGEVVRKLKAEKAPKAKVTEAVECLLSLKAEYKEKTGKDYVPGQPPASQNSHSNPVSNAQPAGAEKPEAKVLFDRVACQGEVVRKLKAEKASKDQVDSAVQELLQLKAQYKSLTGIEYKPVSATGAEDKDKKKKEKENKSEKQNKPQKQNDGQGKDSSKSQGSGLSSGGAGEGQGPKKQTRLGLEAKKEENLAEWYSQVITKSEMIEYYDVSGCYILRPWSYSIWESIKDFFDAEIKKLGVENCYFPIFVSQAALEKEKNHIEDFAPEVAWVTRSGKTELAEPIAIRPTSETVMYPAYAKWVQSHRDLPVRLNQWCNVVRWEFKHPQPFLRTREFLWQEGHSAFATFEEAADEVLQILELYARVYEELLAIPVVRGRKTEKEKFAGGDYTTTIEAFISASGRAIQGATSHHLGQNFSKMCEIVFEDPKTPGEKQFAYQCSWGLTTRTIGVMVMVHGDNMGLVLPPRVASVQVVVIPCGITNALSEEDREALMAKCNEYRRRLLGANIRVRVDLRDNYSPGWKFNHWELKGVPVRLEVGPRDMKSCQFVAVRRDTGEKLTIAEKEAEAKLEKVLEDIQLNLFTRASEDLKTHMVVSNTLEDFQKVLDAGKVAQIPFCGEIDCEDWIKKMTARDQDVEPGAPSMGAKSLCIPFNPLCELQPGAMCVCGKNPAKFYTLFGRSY
UniProt P27546: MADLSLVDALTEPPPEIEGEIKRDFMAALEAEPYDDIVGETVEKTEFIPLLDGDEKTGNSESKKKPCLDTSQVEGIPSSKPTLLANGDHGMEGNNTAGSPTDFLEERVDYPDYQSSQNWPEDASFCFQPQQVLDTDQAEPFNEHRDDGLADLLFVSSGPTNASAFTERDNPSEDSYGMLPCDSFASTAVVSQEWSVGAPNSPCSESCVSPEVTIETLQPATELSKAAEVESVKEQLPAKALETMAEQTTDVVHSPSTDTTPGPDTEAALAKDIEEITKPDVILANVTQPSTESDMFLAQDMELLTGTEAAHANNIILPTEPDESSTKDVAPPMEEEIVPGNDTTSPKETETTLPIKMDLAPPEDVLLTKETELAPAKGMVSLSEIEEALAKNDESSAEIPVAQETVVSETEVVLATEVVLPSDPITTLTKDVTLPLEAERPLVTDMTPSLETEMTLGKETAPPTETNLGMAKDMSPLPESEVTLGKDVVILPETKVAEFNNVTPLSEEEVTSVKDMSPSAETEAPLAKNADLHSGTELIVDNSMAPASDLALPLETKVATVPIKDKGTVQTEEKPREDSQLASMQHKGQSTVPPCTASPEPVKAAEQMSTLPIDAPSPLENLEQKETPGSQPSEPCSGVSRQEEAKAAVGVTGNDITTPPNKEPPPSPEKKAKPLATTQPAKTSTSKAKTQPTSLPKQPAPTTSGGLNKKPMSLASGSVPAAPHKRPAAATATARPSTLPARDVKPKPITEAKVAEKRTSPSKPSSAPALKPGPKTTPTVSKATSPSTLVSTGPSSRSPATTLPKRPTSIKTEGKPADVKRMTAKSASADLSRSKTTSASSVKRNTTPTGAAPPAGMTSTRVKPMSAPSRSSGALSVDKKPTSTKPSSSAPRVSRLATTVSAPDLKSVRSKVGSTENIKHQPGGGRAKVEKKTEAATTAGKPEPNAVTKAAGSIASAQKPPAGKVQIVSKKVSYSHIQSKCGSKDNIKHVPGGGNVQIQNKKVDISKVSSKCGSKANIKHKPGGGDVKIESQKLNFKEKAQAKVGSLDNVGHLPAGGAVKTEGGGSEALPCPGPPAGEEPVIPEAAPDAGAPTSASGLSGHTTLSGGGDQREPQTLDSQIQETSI

Target: T1, GST-BEX1 (brain-expressed X-linked protein 1 fused to glutathione-S-transferase) (UniProt Q9R224)
T1 sequence: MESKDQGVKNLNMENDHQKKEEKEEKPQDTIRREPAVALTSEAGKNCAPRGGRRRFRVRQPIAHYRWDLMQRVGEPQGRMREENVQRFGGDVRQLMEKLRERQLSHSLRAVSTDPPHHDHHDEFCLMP
Experiment: affinity purification with mass spectrometry; GST chromatography: heart protein extracts incubated with GST-BEX1 or GST only; eluted partners on silver-stained gels, bands identified by MALDI mass spectrometry; only the target purified

## Glutamyl-Prolyl-tRNA Synthetase (EPRS) (from UniProt Q8CGC7 1-1512)
  binding: binds

## Microtubule-Associated Protein 4 (MAP4) (from UniProt P27546 1-1125)
  binding: binds
